Data as given in PubChem BioAssay AID1671195 (Yale University, 2021).
Shown is a random part of about 22,000 deposited reagents. About 1,510 of them (6.9%) count as active. 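Active includes knockdowns raising or lowering LDL uptake; positive z-scores mean more uptake, negative mean less.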

Aim: 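Regulators of LDL receptor activity judged by labelled LDL uptake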 (primary screen)
System: human Huh7 hepatoma cells
Reagents: siRNA pool against human genes, 18 nM
Timing: about 2 to 2.5 days of knockdown, then 8 h LDL uptake
Challenge: DiI-labelled LDL at 30 µg/ml for 8 h, in lipoprotein-deficient serum medium
Read-out: 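Fluorescent LDL signal imaged in cells, scaled to the plate median, robust z-score for each replicate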
Reading the numbers: robust z-score: higher = more LDL uptake after knockdown
Hit rule: 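a gene counts as active if at least two replicate z-scores exceed ±2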

With knock-down of HIF1AN (GeneID 55662), the record shows robust z-score, replicate 1 = 0.189; robust z-score, replicate 2 = 0.194; robust z-score, replicate 3 = -0.215; inactive.
SDF4 (GeneID 51150) gave robust z-score, replicate 1 = -1.7; robust z-score, replicate 2 = -1.64; robust z-score, replicate 3 = -1.87; inactive.
ANGPTL1 (GeneID 9068) scored robust z-score, replicate 1 = -2.65; robust z-score, replicate 2 = -2.57; robust z-score, replicate 3 = -2; active.
With knock-down of MAS1 (GeneID 4142), the screen gave robust z-score, replicate 1 = 0.75; robust z-score, replicate 2 = 0.868; robust z-score, replicate 3 = 0.794; inactive.
Silencing of ZNF850-DT (GeneID 728485) gave: robust z-score, replicate 1 = 2.37; robust z-score, replicate 2 = 2.46; robust z-score, replicate 3 = 2.29; active.
Against HECA (GeneID 51696) the deposit lists robust z-score, replicate 1 = 0.595; robust z-score, replicate 2 = -0.0614; robust z-score, replicate 3 = -1.63; inactive.
With knock-down of LOC345711 (retired record) (GeneID 345711) the results were robust z-score, replicate 1 = -0.231; robust z-score, replicate 2 = -0.636; robust z-score, replicate 3 = -0.13; inactive.
Against SPATS1 (GeneID 221409), the entry reads robust z-score, replicate 1 = -0.31; robust z-score, replicate 2 = 0.0541; robust z-score, replicate 3 = -0.252; inactive.
Depletion of MMADHC (GeneID 27249) resulted in: robust z-score, replicate 1 = 0.38; robust z-score, replicate 2 = 0.367; robust z-score, replicate 3 = -1.62; inactive.
TROAP (GeneID 10024) showed robust z-score, replicate 1 = 0.178; robust z-score, replicate 2 = -1.44; robust z-score, replicate 3 = -0.922; inactive.

Part of the list above in another layout:
gene knocked down | robust z-score, replicate 1 | robust z-score, replicate 2 | robust z-score, replicate 3 | call
SDF4 (GeneID 51150) | -1.7 | -1.64 | -1.87 | inactive
ANGPTL1 (GeneID 9068) | -2.65 | -2.57 | -2 | active

Further entries follow.
SERINC3 (GeneID 10955) scored robust z-score, replicate 1 = -3.13; robust z-score, replicate 2 = -1.09; robust z-score, replicate 3 = -1.71; inactive.
CCDC181 (GeneID 57821) gave robust z-score, replicate 1 = 1.6; robust z-score, replicate 2 = 1.33; robust z-score, replicate 3 = 1.53; inactive.
Silencing of LOC401182 (retired record) (GeneID 401182) gave: robust z-score, replicate 1 = 0.505; robust z-score, replicate 2 = 0.272; robust z-score, replicate 3 = 1.27; inactive.
LOC401048 (retired record) (GeneID 401048) gave robust z-score, replicate 1 = 2.08; robust z-score, replicate 2 = 1.4; robust z-score, replicate 3 = 2.43; active.
TLR5 (GeneID 7100) scored robust z-score, replicate 1 = 1.13; robust z-score, replicate 2 = 1.17; robust z-score, replicate 3 = 1.25; inactive.
WDR25 (GeneID 79446) gave robust z-score, replicate 1 = 0.565; robust z-score, replicate 2 = -0.266; robust z-score, replicate 3 = 0.0858; inactive.
